{"source": "PubChem BioAssay AID743454 – Peter MacCallum Cancer Centre, 2014", "assay": "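Genes whose loss kills vorinostat-resistant colon cancer cells under vorinostat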 (primary screen)", "cells": "human HCT116-VR colon cancer cells, selected for vorinostat resistance", "reagents": "siRNA pool against human genes, 40 nM siRNA pool", "timing": "vorinostat for 24 h, read-out about 72 h after transfection", "treatment": "vorinostat at 2.5 µM final", "measured": "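Two measures, CellTiter-Fluor viability and luminescent caspase 3/7 activity, each as fold change against same-plate mock wells, mean of duplicates, then screen-wide robust z-score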", "direction": "viability robust z-score: higher = more viable cells than screen typical; caspase robust z-score: higher = more caspase 3/7 activity than screen typical", "rule for the call": "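a knock-down is a hit when classed RV1 or RV2 for lowered viability, or CA1 or CA2 for caspase activation; those lethal without drug were dropped; hits were retested singly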", "note": "This is an unselected part of about 18,000 reagents. Over the whole deposit, 450 (2.5%) were called active. 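Single biological run; no consistent viability z cut-off exists, so the class columns, not z-scores, define the calls.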 A number with no mark means an inactive call."}
{"target gene": "TRPV1", "viability hit class": "no change", "caspase hit class": "no change", "viability robust z-score": 0.64, "caspase robust z-score": 0.11}
{"target gene": "POLA1", "viability hit class": "no change", "caspase hit class": "no change", "viability robust z-score": 1.11, "caspase robust z-score": 0.6}
{"target gene": "UQCRC1", "viability hit class": "no change", "caspase hit class": "no change", "viability robust z-score": -0.24, "caspase robust z-score": 0.72}
{"target gene": "ZNF263", "viability hit class": "no change", "caspase hit class": "no change", "viability robust z-score": 0.98, "caspase robust z-score": -0.18}
{"target gene": "ZMIZ1", "viability hit class": "no change", "caspase hit class": "no change", "viability robust z-score": 0.45, "caspase robust z-score": -0.07}
{"target gene": "MT4", "viability hit class": "no change", "caspase hit class": "no change", "viability robust z-score": 0.5, "caspase robust z-score": 0.22}
{"target gene": "ZCWPW1", "viability hit class": "no change", "caspase hit class": "no change", "viability robust z-score": -1.34, "caspase robust z-score": -0.35}
{"target gene": "TBC1D9B", "viability hit class": "no change", "caspase hit class": "no change", "viability robust z-score": 0.8, "caspase robust z-score": -0.92}
{"target gene": "IPO7", "viability hit class": "no change", "caspase hit class": "no change", "viability robust z-score": -0.72, "caspase robust z-score": 0.12}
{"target gene": "MGAT5", "viability hit class": "no change", "caspase hit class": "no change", "viability robust z-score": 0.97, "caspase robust z-score": -0.51}
{"target gene": "NUP107", "viability hit class": "no change", "caspase hit class": "no change", "viability robust z-score": -1.4, "caspase robust z-score": 1.66}
{"target gene": "UGT2A1", "viability hit class": "no change", "caspase hit class": "no change", "viability robust z-score": 1.14, "caspase robust z-score": -0.58}
{"target gene": "PMAIP1", "viability hit class": "no change", "caspase hit class": "no change", "viability robust z-score": 0.32, "caspase robust z-score": -0.84}
{"target gene": "APOE", "viability hit class": "no change", "caspase hit class": "no change", "viability robust z-score": -1.19, "caspase robust z-score": 0.41}
{"target gene": "KIR2DL4", "viability hit class": "no change", "caspase hit class": "no change", "viability robust z-score": 0.61, "caspase robust z-score": 3.04}
{"target gene": "C19orf47", "viability hit class": "no change", "caspase hit class": "no change", "viability robust z-score": 0.45, "caspase robust z-score": 0.53}
{"target gene": "IL1A", "viability hit class": "no change", "caspase hit class": "no change", "viability robust z-score": 0.62, "caspase robust z-score": 1.12}
{"target gene": "RPL7", "viability hit class": "no change", "caspase hit class": "no change", "viability robust z-score": -4.86, "caspase robust z-score": -0.64}
{"target gene": "TPD52L1", "viability hit class": "no change", "caspase hit class": "no change", "viability robust z-score": 0.02, "caspase robust z-score": 0.76}
{"target gene": "LCN9", "viability hit class": "no change", "caspase hit class": "no change", "viability robust z-score": -1.32, "caspase robust z-score": 0.86}
{"target gene": "HOXC13", "viability hit class": "no change", "caspase hit class": "no change", "viability robust z-score": -0.55, "caspase robust z-score": 0.38}

Targets listed so far whose target name begins with M or m (2):
{"target gene": "MT4", "viability hit class": "no change", "caspase hit class": "no change", "viability robust z-score": 0.5, "caspase robust z-score": 0.22}
{"target gene": "MGAT5", "viability hit class": "no change", "caspase hit class": "no change", "viability robust z-score": 0.97, "caspase robust z-score": -0.51}
